Our source for the IC50 values is patent publication US4238500A, “Cyclic double hemiacetals of enediol compounds and compositions and methods for preparing and using same” (National Foundation for Cancer Research, priority 1979, dated 1980).

The test deals with guinea pig ileum. The experiment in a line: Effects on pain receptors: twitch height of coaxially stimulated guinea pig ileum. As to conditions: Cavia porcellus, read-out: ED50 (50% reduction in twitch height).

`CN1CC[C@]23c4c5ccc(O)c4O[C@H]2[C@@H](O)C=C[C@H]3[C@H]1C5` [Morphine, morphine]: the IC50 is 8.5 mM.
